Results published in the supplement of paper PMC10849652.
The list shows a part of the results.

Amino acid sequences for entries named in this document (tags omitted). A change or cut given only in a name is not applied to a line headed by its entry.
UniProt Q8WUM9: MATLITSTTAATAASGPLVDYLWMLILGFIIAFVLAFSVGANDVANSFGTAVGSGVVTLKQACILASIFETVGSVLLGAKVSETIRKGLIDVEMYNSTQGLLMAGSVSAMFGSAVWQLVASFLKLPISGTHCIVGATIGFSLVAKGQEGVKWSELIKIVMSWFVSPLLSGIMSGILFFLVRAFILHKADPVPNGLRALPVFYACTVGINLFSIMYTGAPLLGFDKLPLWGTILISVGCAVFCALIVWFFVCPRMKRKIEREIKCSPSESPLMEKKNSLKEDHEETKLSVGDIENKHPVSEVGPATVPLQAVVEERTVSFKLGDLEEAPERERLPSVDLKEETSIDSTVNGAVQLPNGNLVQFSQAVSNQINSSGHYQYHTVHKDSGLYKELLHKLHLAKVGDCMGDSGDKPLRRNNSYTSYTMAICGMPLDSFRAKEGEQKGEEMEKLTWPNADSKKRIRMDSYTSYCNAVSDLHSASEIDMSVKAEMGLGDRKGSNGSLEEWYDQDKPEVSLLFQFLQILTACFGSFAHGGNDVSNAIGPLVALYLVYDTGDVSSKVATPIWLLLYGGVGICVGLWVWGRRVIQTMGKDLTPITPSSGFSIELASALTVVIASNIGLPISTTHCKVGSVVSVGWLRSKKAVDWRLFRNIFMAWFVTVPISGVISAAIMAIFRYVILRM
UniProt Q99808: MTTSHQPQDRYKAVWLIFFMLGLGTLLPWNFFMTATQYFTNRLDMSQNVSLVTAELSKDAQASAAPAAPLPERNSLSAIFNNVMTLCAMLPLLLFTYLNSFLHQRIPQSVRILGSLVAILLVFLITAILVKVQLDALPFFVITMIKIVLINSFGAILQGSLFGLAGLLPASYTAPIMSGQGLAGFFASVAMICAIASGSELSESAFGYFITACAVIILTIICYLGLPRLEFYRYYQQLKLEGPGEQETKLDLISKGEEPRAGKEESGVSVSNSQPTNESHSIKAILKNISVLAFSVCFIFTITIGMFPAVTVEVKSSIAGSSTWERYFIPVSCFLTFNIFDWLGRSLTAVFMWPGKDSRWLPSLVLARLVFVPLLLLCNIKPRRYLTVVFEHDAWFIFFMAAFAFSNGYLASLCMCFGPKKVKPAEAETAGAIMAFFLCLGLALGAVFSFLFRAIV
UniProt O60779: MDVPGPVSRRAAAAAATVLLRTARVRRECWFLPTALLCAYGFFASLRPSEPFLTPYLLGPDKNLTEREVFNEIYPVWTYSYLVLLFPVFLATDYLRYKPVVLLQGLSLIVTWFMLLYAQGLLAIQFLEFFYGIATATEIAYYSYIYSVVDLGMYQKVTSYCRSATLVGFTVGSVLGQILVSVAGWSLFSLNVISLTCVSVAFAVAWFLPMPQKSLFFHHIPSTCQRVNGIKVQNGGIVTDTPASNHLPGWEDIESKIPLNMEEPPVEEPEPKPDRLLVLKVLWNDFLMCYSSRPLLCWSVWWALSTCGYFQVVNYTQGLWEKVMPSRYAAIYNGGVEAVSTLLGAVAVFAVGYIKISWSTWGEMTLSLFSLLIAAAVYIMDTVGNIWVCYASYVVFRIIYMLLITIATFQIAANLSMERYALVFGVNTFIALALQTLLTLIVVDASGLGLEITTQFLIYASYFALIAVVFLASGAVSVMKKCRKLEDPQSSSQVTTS
UniProt Q8NBI5: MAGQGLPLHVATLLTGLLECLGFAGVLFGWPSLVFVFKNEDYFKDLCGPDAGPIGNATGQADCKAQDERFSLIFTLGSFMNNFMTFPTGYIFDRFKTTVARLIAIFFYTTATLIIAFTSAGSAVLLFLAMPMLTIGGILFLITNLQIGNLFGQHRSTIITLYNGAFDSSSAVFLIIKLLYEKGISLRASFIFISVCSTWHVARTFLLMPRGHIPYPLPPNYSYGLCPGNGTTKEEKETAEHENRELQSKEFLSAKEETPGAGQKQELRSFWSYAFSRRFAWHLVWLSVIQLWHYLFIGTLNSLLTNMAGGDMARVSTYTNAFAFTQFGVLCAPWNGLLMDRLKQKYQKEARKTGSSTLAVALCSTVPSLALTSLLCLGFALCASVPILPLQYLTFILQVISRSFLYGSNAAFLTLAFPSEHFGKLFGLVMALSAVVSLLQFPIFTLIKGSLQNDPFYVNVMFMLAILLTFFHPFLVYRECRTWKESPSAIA
UniProt Q9Y6M7: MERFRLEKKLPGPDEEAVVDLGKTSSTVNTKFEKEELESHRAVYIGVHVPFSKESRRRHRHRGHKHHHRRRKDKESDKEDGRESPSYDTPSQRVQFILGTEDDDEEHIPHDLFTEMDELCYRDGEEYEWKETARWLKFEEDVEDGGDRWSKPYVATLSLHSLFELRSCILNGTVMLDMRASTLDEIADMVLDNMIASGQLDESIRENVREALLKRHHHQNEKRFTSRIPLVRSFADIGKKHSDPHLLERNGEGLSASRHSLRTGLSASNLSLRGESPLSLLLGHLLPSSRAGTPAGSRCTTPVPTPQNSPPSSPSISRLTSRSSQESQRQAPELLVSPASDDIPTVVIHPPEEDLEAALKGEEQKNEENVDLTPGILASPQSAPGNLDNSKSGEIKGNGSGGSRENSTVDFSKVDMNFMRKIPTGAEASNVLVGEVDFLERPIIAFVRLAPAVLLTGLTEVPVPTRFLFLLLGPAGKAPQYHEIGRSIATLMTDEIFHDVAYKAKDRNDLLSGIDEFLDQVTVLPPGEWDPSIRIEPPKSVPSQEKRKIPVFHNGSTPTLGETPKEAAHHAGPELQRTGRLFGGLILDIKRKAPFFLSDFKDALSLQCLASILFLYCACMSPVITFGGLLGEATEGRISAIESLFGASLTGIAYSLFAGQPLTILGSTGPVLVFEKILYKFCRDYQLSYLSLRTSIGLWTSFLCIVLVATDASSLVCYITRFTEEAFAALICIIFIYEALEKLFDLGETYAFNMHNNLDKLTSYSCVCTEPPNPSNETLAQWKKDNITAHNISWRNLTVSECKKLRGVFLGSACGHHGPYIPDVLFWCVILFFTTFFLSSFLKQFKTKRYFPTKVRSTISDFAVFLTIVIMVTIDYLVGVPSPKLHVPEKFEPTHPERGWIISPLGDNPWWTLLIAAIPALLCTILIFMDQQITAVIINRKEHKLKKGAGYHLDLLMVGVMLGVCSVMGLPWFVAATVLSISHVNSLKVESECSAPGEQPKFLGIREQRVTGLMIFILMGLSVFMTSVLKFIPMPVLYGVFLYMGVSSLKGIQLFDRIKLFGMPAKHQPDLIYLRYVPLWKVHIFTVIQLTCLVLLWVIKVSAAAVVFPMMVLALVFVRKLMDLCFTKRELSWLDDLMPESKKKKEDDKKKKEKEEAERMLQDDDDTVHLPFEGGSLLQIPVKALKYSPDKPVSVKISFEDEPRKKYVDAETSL
UniProt Q96A29: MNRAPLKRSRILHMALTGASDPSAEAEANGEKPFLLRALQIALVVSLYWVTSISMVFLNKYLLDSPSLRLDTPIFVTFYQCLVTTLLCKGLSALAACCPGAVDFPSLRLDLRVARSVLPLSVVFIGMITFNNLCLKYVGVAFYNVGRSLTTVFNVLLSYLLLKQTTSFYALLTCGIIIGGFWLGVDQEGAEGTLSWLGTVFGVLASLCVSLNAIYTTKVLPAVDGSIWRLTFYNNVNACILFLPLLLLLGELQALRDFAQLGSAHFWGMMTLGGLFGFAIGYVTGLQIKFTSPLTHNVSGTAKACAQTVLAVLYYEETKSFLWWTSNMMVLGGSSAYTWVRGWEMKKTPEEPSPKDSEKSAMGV
UniProt O14975, whole entry, looked up: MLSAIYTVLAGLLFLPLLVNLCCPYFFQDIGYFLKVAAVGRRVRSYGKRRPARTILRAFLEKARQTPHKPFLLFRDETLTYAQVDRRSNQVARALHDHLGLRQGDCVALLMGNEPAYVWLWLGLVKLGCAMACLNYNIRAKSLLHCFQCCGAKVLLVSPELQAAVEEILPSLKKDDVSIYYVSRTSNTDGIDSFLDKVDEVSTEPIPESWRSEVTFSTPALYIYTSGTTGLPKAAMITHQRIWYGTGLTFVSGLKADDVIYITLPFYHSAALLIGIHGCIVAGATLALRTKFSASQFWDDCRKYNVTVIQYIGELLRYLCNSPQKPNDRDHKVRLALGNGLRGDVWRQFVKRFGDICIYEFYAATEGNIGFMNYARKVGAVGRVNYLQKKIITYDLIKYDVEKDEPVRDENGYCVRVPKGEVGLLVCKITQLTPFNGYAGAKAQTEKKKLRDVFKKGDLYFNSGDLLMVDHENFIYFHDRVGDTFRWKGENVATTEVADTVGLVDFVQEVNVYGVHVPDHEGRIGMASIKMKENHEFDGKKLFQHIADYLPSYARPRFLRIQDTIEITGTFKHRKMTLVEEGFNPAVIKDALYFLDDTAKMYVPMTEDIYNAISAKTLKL
UniProt F5GZS6: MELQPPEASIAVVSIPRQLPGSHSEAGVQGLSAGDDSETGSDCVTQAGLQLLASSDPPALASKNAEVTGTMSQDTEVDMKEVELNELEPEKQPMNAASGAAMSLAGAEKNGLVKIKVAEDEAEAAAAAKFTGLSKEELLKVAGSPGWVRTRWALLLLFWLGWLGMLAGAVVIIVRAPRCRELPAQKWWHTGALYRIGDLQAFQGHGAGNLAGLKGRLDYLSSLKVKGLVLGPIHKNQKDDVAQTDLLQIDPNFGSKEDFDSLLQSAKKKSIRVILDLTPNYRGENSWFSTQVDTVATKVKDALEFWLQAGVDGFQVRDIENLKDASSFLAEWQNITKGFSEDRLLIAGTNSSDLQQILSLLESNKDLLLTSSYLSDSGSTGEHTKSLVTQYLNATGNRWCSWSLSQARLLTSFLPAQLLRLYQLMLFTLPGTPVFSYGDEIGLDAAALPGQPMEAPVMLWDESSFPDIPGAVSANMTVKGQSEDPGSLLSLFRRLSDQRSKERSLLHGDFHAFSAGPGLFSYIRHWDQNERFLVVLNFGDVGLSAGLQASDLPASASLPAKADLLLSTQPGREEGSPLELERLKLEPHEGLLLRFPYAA
UniProt Q92504: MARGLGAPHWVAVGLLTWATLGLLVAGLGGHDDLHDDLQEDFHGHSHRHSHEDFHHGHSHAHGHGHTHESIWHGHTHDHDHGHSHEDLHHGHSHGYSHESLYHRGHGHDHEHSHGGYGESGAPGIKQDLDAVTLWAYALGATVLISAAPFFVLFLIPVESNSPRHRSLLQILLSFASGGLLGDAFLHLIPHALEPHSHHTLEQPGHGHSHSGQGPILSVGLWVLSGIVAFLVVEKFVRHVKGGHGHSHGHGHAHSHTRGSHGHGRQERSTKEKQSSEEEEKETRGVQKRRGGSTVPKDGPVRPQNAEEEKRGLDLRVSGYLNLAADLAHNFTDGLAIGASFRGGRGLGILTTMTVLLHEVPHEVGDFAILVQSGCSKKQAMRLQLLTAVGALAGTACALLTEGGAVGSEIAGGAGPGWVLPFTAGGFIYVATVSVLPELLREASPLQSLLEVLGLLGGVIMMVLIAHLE
UniProt Q9UPY5: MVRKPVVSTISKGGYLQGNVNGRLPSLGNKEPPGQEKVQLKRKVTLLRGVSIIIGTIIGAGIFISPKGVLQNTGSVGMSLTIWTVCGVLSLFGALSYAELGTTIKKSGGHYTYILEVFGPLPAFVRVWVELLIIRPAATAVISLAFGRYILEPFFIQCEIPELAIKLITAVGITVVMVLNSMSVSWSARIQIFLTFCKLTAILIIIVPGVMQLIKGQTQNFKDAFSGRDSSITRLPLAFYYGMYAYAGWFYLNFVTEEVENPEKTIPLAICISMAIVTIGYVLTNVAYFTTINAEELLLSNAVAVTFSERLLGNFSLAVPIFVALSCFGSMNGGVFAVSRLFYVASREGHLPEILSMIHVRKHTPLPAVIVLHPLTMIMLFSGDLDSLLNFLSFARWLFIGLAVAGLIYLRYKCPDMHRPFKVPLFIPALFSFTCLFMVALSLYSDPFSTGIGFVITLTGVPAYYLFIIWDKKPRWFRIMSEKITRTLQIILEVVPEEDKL
UniProt Q9H0C2: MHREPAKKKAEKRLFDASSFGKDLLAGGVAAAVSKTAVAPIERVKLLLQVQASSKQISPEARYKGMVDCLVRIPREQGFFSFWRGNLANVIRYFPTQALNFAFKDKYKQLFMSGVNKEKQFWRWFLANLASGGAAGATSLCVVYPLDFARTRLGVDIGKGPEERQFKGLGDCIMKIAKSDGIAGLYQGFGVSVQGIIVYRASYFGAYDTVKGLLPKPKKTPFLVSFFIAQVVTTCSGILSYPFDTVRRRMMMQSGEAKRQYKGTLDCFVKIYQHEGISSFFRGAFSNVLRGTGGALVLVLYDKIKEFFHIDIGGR
UniProt Q14493, whole entry, looked up: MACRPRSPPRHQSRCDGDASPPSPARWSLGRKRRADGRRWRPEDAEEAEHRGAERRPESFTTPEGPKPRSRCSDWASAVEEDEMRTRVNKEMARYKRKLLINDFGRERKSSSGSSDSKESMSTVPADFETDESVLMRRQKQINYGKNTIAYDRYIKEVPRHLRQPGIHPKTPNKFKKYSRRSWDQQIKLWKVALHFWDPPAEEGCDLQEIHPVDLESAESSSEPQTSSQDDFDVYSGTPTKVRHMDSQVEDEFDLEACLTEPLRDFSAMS

Assays:
Assay in all cases: log2 fold change, soluble protein after heating vs DMSO (PISA); higher = thermal stabilisation; K562 cells, 10 uM, 30 min; active = over 0.2 and 3.5 SD of the protein, either way, in both replicates (recomputed)
[1] = compound: CC[C@@H]1C(=O)N(C)c2cnc(Nc3ccc(C(=O)NC4CCN(C)CC4)cc3OC)nc2N1C1CCCC1
Summary of the method: (§1)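 Soluble protein was defined as the supernatant after 21,000xg for 90 min. It came from K562 cells at 2×10^6 cells/mL given 10 μM compound for 30 min, heated in aliquots for 3 min across 48°C-58°C, pooled, and extracted in PBS with 0.5% NP-40 at 4°C, and was quantified by TMTpro 16plex LC-MS/MS with equalised channel sums. Thermal stability against control samples, from duplicates, is reported as log2 fold change.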

volasertib = compound: CC[C@@H]1C(=O)N(C)c2cnc(Nc3ccc(C(=O)N[C@H]4CC[C@H](N5CCN(CC6CC6)CC5)CC4)cc3OC)nc2N1C(C)C [volasertib]
Summary of the method: as §1

[2] = compound: CC[C@H](C)N1C=C(C2=C(C=C(C=C21)C3=CN=C(C=C3)N4CCNCC4)C(=O)NCC5=C(C=C(NC5=O)C)C)C
Summary of the method: as §1

epoxomicin = compound: CC[C@H](C)[C@@H](C(=O)N[C@@H]([C@@H](C)O)C(=O)N[C@@H](CC(C)C)C(=O)[C@]1(CO1)C)NC(=O)[C@H]([C@@H](C)CC)N(C)C(=O)C [epoxomicin]
Summary of the method: as §1

[3] = compound: CCn1c(C(=O)N(C2CC2)C2CC2)cc2c3c(ncn3C)c(Nc3cc(C)n(C)n3)nc21
Summary of the method: as §1

[4] = compound: CCn1cc(-c2ccnc3[nH]c(-c4cccc(CN(C)C)c4)cc23)c(-c2ccc(NC(=O)N(C)C)cc2)n1
Summary of the method: as §1

[5] = compound: CN(C)CC(=O)Nc1ccc2[nH]c(=O)c3ccccc3c2c1
Summary of the method: as §1

rosiglitazone = compound: CN(CCOC1=CC=C(C=C1)C[C@H]2C(=O)NC(=O)S2)C3=CC=CC=N3 (racemic) [rosiglitazone]
Summary of the method: as §1

[6] = compound: CN1C2=C(C3=C1C(=O)N(N=C3)CC4=CC(=CC=C4)N)SC(=C2)S(=O)C
Summary of the method: as §1

[7] = compound: CN1CCC(CNc2ccc3ncc(-c4cccc(OC(F)(F)F)c4)n3n2)CC1
Summary of the method: as §1

saracatinib = compound: CN1CCN(CCOc2cc(OC3CCOCC3)c3c(Nc4c(Cl)ccc5c4OCO5)ncnc3c2)CC1 [saracatinib]
Summary of the method: as §1

sotrastaurin = compound: CN1CCN(c2nc(C3=C(c4c[nH]c5ccccc45)C(=O)NC3=O)c3ccccc3n2)CC1 [sotrastaurin]
Summary of the method: as §1

alvocidib = compound: CN1CC[C@H](c2c(O)cc(O)c3c(=O)cc(-c4ccccc4Cl)oc23)[C@H](O)C1 [alvocidib]
Summary of the method: as §1

Tubastatin A = compound: CN1CCc2c(c3ccccc3n2Cc2ccc(C(=O)NO)cc2)C1 [Tubastatin A]
Summary of the method: as §1

[8] = compound: CNC(=O)C1=CC=CC=C1NC2=NC(=NC=C2Cl)NC3=C(C=C(C=C3)N4CCOCC4)OC
Summary of the method: as §1

defactinib = compound: CNC(=O)c1ccc(Nc2ncc(C(F)(F)F)c(NCc3nccnc3N(C)S(C)(=O)=O)n2)cc1 [defactinib]
Summary of the method: as §1

rucaparib = compound: CNCc1ccc(-c2[nH]c3cc(F)cc4c3c2CCNC4=O)cc1 [rucaparib]
Summary of the method: as §1

[9] = compound: CNc1nc(-c2ccc3c(N)n[nH]c3c2)cc(N2C[C@@H](C(=O)NC3CCCCC3)CC[C@H]2C)n1
Summary of the method: as §1

encorafenib = compound: COC(=O)N[C@@H](C)CNc1nccc(-c2cn(C(C)C)nc2-c2cc(Cl)cc(NS(C)(=O)=O)c2F)n1 [encorafenib]
Summary of the method: as §1

[10] = compound: COC(=O)[C@H](CCSC)NC(=O)C1=C(C=C(C=C1)NC[C@H](CS)N)C2=CC=CC=C2
Summary of the method: as §1

Measured: log2 fold change

SLC20A1 (UniProt Q8WUM9)
inactive: [1] 0.067 | volasertib 0.009 | [2] -0.054 | epoxomicin 0.012 | [3] 0.018 | [4] -0.003 | [5] 0.002 | rosiglitazone -0.018 | [6] 0.049 | [7] 0.048 | saracatinib -0.016 | sotrastaurin 0.019 | alvocidib 0.006 | Tubastatin A 0.015 | [8] 0.005 | defactinib -0.004 | rucaparib -0.008 | [9] 0.012 | encorafenib 0.008 | [10] 0

SLC29A1 isoform 2 (UniProt Q99808)
inactive: [1] 0.18 | volasertib -0.044 | [2] -0.07 | epoxomicin -0.029 | [3] 0.068 | [4] -0.01 | [5] 0.006 | rosiglitazone -0.02 | [6] -0.109 | [7] 0.061 | saracatinib 0.024 | sotrastaurin 0.072 | alvocidib -0.015 | Tubastatin A -0.046 | [8] -0.034 | defactinib -0.084 | rucaparib -0.021 | [9] 0.069 | encorafenib -0.004 | [10] -0.01

SLC19A2 (UniProt O60779)
inactive: [1] -0.068 | volasertib -0.316 | [2] -0.05 | epoxomicin -0.377 | [3] 0.179 | [5] 0.095 | [6] 0 | saracatinib 0.163 | sotrastaurin -0.179 | alvocidib 0.003 | Tubastatin A 0.078 | [8] -0.269 | defactinib -0.096 | rucaparib 0.014 | [9] -0.061 | encorafenib 0.168 | [10] -0.083

SLC43A3 isoform 2 (UniProt Q8NBI5)
inactive: [1] 0.048 | volasertib 0.089 | [2] -0.056 | epoxomicin -0.02 | [3] 0.064 | [4] -0.008 | [5] -0.027 | rosiglitazone -0.054 | [6] -0.05 | [7] 0.145 | saracatinib 0.02 | sotrastaurin 0.033 | alvocidib -0.012 | Tubastatin A 0.052 | [8] -0.047 | defactinib 0.056 | rucaparib -0.107 | [9] -0.011 | encorafenib 0.052 | [10] 0.044

SLC16A1 (UniProt P53985)
inactive: [1] 0.05 | volasertib -0.007 | [2] -0.053 | epoxomicin -0.104 | [3] 0.069 | [4] -0.017 | [5] 0.011 | rosiglitazone 0.02 | [6] -0.108 | [7] 0.163 | saracatinib -0.003 | sotrastaurin 0.094 | alvocidib 0.032 | Tubastatin A 0.005 | [8] -0.027 | defactinib -0.025 | rucaparib -0.146 | [9] 0.034 | encorafenib 0.003 | [10] 0.035

SLC4A7 isoform 7 (UniProt Q9Y6M7)
inactive: [1] 0.07 | volasertib 0.039 | [2] 0.127 | epoxomicin 0.011 | [3] -0.037 | [5] 0.041 | rosiglitazone -0.021 | [6] 0.077 | saracatinib -0.066 | sotrastaurin 0.043 | alvocidib 0.147 | Tubastatin A 0.183 | [8] -0.005 | defactinib 0.015 | rucaparib 0.145 | [9] 0.077 | encorafenib -0.026 | [10] -0.048

SLC35C1 (UniProt Q96A29)
inactive: [1] -0.074 | volasertib 0.087 | [2] -0.1 | epoxomicin -0.152 | [3] 0.031 | [4] 0.058 | [5] 0.075 | rosiglitazone 0.032 | [6] -0.037 | [7] 0.073 | saracatinib 0.009 | alvocidib -0.02 | Tubastatin A -0.032 | [8] -0.09 | defactinib -0.011 | rucaparib 0.057 | [9] -0.071 | encorafenib -0.114 | [10] -0.047

SLC27A2 (UniProt O14975)
inactive: [1] -0.094 | [2] 0 | epoxomicin -0.05 | [4] -0.064 | [5] 0.016 | [6] -0.092 | saracatinib 0 | sotrastaurin 0.005 | Tubastatin A -0.015 | [8] 0.144 | defactinib -0.006 | rucaparib 0.056 | encorafenib 0.015 | [10] -0.034
active: volasertib -0.408 | [3] 0.277 | [7] 0.313 | [9] 0.333

SLC3A2 (UniProt F5GZS6)
inactive: [1] 0.174 | volasertib 0.049 | [2] -0.023 | epoxomicin 0.085 | [3] -0.094 | [5] -0.316 | rosiglitazone -0.014 | [6] 0.015 | saracatinib 0.174 | Tubastatin A -0.118 | [8] 0 | defactinib 0.31 | rucaparib 0.172 | [9] -0.129 | encorafenib 0.14 | [10] 0.073

SLC39A7 (UniProt Q92504)
inactive: [1] 0.004 | volasertib 0.094 | [2] -0.042 | epoxomicin -0.075 | [3] 0.081 | [4] -0.02 | [5] -0.057 | rosiglitazone -0.049 | [6] 0.003 | [7] 0.073 | saracatinib 0 | sotrastaurin 0.057 | alvocidib 0.058 | Tubastatin A -0.012 | [8] -0.037 | defactinib 0.043 | rucaparib -0.013 | [9] -0.163 | encorafenib -0.006 | [10] 0.078

SLC5A3 (UniProt P53794)
inactive: [1] 0.176 | volasertib 0.019 | [2] -0.018 | epoxomicin 0.049 | [3] 0.06 | [4] -0.047 | [5] -0.016 | rosiglitazone -0.01 | [6] -0.028 | [7] 0.122 | saracatinib 0.049 | sotrastaurin 0.043 | alvocidib 0.03 | Tubastatin A -0.021 | [8] 0.004 | defactinib -0.088 | rucaparib -0.063 | [9] 0.075 | encorafenib -0.027 | [10] 0.024

SLC7A11 (UniProt Q9UPY5)
inactive: [1] -0.052 | volasertib -0.005 | [2] 0 | epoxomicin -0.039 | [3] 0 | [4] -0.033 | [5] 0.009 | rosiglitazone -0.05 | [6] -0.026 | [7] 0.082 | saracatinib 0.005 | sotrastaurin 0.039 | alvocidib -0.022 | Tubastatin A 0.023 | [8] -0.042 | defactinib -0.047 | rucaparib -0.008 | [9] -0.011 | encorafenib -0.018 | [10] 0.031

SLC25A31 (UniProt Q9H0C2)
inactive: [1] 0.01 | volasertib 0.063 | [2] -0.044 | epoxomicin 0.009 | [3] 0.018 | [4] -0.021 | [5] -0.013 | rosiglitazone -0.008 | [6] -0.024 | [7] 0.048 | saracatinib 0.08 | sotrastaurin 0.035 | alvocidib -0.039 | Tubastatin A -0.01 | [8] -0.038 | defactinib -0.006 | rucaparib -0.018 | [9] -0.026 | encorafenib -0.027 | [10] 0.027

SLC35F6 (UniProt Q8N357)
inactive: [1] -0.099 | volasertib -0.053 | [2] 0.087 | epoxomicin 0.021 | [5] 0.034 | [6] -0.029 | saracatinib 0.182 | sotrastaurin -0.071 | Tubastatin A -0.05 | [8] -0.025 | defactinib -0.043 | rucaparib -0.004 | [9] -0.247 | encorafenib -0.042 | [10] 0.007

SLC38A2 (UniProt Q96QD8)
inactive: [1] 0.035 | volasertib 0.004 | [2] -0.091 | epoxomicin -0.078 | [5] -0.022 | [6] -0.1 | saracatinib -0.007 | sotrastaurin 0.027 | Tubastatin A -0.043 | [8] 0.004 | defactinib -0.034 | rucaparib -0.044 | [9] -0.188 | encorafenib 0.045 | [10] -0.024

SLBP (UniProt Q14493)
active: [7] -0.291
inactive: [1] -0.052 | volasertib -0.034 | [2] 0.013 | epoxomicin 0.127 | [4] 0 | [5] -0.003 | [6] 0.113 | saracatinib -0.083 | sotrastaurin -0.077 | Tubastatin A 0.117 | [8] 0.113 | defactinib -0.128 | rucaparib -0.158 | [9] 0.02 | encorafenib 0.113 | [10] 0

2 consecutive records out of the list so far, for reference:
SLC35F6 (UniProt Q8N357)
inactive: [1] -0.099 | volasertib -0.053 | [2] 0.087 | epoxomicin 0.021 | [5] 0.034 | [6] -0.029 | saracatinib 0.182 | sotrastaurin -0.071 | Tubastatin A -0.05 | [8] -0.025 | defactinib -0.043 | rucaparib -0.004 | [9] -0.247 | encorafenib -0.042 | [10] 0.007

SLC38A2 (UniProt Q96QD8)
inactive: [1] 0.035 | volasertib 0.004 | [2] -0.091 | epoxomicin -0.078 | [5] -0.022 | [6] -0.1 | saracatinib -0.007 | sotrastaurin 0.027 | Tubastatin A -0.043 | [8] 0.004 | defactinib -0.034 | rucaparib -0.044 | [9] -0.188 | encorafenib 0.045 | [10] -0.024

Following part:

SLC25A14 isoform 3 (UniProt O95258)
inactive: [1] 0.125 | volasertib 0.103 | [2] 0.036 | [3] 0.028 | [4] -0.094 | [5] 0.027 | rosiglitazone -0.033 | [6] -0.036 | [7] 0.065 | saracatinib 0.103 | alvocidib -0.119 | Tubastatin A -0.017 | [8] -0.015 | defactinib 0.019 | rucaparib -0.129 | [9] -0.006 | encorafenib 0.014 | [10] -0.007
